No constants are given. Whether binding was seen depends on the method and setting. In cells and extracts the contact can be indirect. Some binding calls cover weakened binding; strength is not graded here.
T1: Rpt1 (S. cerevisiae) (UniProt P33299)
T1 sequence: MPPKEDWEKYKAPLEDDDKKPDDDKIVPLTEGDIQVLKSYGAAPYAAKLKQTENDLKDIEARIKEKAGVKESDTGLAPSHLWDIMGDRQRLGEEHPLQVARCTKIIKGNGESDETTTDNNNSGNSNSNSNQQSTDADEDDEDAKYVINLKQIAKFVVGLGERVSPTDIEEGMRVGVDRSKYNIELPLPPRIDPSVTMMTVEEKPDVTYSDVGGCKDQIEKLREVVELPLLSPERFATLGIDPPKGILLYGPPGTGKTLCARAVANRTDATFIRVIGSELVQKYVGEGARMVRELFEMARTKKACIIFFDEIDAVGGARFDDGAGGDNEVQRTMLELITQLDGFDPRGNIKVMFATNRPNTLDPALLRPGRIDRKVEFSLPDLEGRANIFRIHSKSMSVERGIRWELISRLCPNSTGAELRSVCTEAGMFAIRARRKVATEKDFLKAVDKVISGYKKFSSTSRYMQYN

The chains behind the UniProt entries cited, without tags or fusion partners.
UniProt Q01939: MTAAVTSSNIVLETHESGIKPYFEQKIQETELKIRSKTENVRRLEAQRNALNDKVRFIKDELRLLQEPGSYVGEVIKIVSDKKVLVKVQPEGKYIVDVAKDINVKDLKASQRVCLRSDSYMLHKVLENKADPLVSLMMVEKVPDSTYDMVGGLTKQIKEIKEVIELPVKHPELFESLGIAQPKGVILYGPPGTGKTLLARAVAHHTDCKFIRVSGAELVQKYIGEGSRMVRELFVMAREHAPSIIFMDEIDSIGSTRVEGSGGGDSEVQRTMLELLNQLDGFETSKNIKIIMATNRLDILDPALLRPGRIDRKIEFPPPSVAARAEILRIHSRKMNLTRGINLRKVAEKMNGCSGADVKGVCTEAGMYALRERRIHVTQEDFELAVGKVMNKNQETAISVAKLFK
UniProt P43588: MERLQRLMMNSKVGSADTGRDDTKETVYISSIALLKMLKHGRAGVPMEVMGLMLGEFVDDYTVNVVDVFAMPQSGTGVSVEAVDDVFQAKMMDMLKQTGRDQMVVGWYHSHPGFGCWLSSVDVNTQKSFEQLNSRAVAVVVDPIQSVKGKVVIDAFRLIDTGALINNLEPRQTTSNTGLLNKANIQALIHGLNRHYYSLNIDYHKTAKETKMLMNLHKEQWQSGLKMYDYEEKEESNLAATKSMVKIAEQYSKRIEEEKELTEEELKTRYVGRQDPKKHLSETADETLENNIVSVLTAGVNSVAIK

T2: Rpt3 (S. cerevisiae) (UniProt P33298)
T2 sequence: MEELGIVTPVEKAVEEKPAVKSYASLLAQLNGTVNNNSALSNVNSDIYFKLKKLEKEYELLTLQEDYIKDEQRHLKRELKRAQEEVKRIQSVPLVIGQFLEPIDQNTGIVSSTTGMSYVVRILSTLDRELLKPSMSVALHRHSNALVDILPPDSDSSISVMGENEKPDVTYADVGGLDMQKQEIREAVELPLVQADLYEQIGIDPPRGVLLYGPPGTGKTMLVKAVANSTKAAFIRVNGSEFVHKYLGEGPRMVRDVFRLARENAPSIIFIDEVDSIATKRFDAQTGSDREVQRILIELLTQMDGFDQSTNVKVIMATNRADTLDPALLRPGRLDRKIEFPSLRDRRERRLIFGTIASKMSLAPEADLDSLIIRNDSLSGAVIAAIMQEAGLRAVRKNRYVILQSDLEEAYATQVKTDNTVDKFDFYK


Columns and labels:
Rpt1 (S. cerevisiae) = molecular target: T1, Rpt1 (S. cerevisiae); test: pull-down; each RPT ATPase purified and immobilized on CH-sepharose beads, incubated with full-length Rpn11 or Rpn11ΔC; BSA beads as mock; anti-Rpn11 immunoblot
Rpt6 (S. cerevisiae) = Rpt6 (S. cerevisiae) (UniProt Q01939); test: as above
Rpt3 (S. cerevisiae) = molecular target: T2, Rpt3 (S. cerevisiae); test: as above
[1] = molecular target: His6–Rpn11 (S. cerevisiae) (UniProt P43588); test: pull-down + SEC; His6–Rpn11 co-expressed in E. coli with module 1 subunits (Rpn8 present); Ni–NTA, then S400 size exclusion (50 mM Tris pH 7.4, 5% glycerol, 100 mM NaCl); SDS/PAGE, bands confirmed by MS/MS

Row | Molecule | binding (Rpt1 (S. cerevisiae)) | binding (Rpt6 (S. cerevisiae)) | binding (Rpt3 (S. cerevisiae)) | binding [1]
1 | full-length Rpn11 (from UniProt P43588 1-306) | binds | binds | binds | –
2 | Rpn8 (protein, UniProt Q08723 1-338) MSLQHEKVTIAPLVLLSALDHYERTQTKENKRCVGVILGDANSSTIRVTNSFALPFEEDEKNSDVWFLDHNYIENMNEMCKKINAKEKLIGWYHSGPKLRASDLKINELFKKYTQNNPLLLIVDVKQQGVGLPTDAYVAIEQVKDDGTSTEKTFLHLPCTIEAEEAEEIGVEHLLRDVRDQAAGGLSIRLTNQLKSLKGLQSKLKDVVEYLDKVINKELPINHTILGKLQDVFNLLPNLGTPDDDEIDVENHDRINISNNLQKALTVKTNDELMVIYISNLVRSIIAFDDLIENKIQNKKIQEQRVKDKQSKVSDDSESESGDKEATAPLIQRKNKKN | – | – | – | binds

Source: publication PMC4438304
